# In patent US20240254209A1:
# What was measured:
# [1] = molecular target: peanut allergen Ara h 3 (peanut (Arachis hypogaea)); test: told in the legend of FIG. 6
# [2] = molecular target: peanut allergen Ara h 3 (peanut (Arachis hypogaea)); test: allergen specificity as listed in Table D
# [3] = molecular target: peanut allergen Ara h 3 (peanut (Arachis hypogaea)); test: Phadia ImmunoCAP and/or ELISA and Western blot
# [4] = molecular target: peanut allergen Ara h 7 (peanut (Arachis hypogaea)); test: allergen specificity as listed in Table D
# [5] = molecular target: peanut allergen Ara h 7 (peanut (Arachis hypogaea)); test: Phadia ImmunoCAP and/or ELISA and Western blot
binding [1],binding [2],binding [3],binding [4],binding [5],Binder
binds,binds,binds,,,"human IgE mAb 3C3 (antibody, V domains shown) VH: QLQLQESGPGLVKPSETLSLTCSISGASINSDDYYWGWIRQAPGEALEWIASIDASGTTFYNPSLRSRVTISVDTSTNQISLRLNSVTAADTAIYYCARRKTYYDFLTDYYNWYFDVWGRGTLVTVSS VL: QSALTQPRSVSGSPGQSVTFSCTGINSDIRDYDYVSWYQQHPGEAPKLIIYDVTKRASGVPSRFSGSKSGNTASLTISGLQAEDEADYYCCSYSVTYSFEVFGTGTQVSVL"
,,,binds,binds,"human IgE mAb 3B7 (antibody, V domains shown) VH: QVQLVQSGSELKKPGASMKVSCKASGYTFTNYAMNWVRQAPGQGLEWMGWINTNTGKPTYAQGFTGRFVFSLDTSVSMAYLQISSLEAGDTAVYFCARGESLAALGSFAYWGQGTLVTVSS VL: DIQMTQSPSSLSASVGDRVTITCRASQSINSYLAWYQQKPGKAPNLLIYAASNLQSGVPSRFSGSGSGTDFTLTISSLQPEDFATYYCQQSSSTFWTFGQGTKVEIK"

# No constants are given. Whether binding was seen depends on the method and setting. Binding calls can cover weak binding; strength is not graded here.
